Binding data for 2 molecules are collected here from patent US9399666B2, “Inhibiting interaction between the HIF-1ALPHA and p300/CBP with hydrogen bond surrogate-based helices” (New York University, priority 2008, dated 2016).

Sequences of proteins named here, by UniProt entry; tags and fusion partners are left off. Residues count along the entry.
UniProt Q09472, residues 323-423: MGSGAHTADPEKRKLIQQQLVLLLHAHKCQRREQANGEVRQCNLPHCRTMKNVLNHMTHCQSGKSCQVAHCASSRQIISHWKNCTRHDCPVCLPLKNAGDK

These are yes or no findings as the source states them, for the method shown. Some binding calls cover weakened binding; strength is not graded here.

The target in the experiment is T1, p300 (UniProt Q09472 323-423, limits assumed).
T1 construct: also called p300/CBP
Briefly: isothermal titration calorimetry.

TAYDCEVNA (N-terminal acetyl (Ac); C-terminal amide (NH2)) [peptide 24 (Ac…-NH2)]: the binding result was “binds”.

As to TSYDCEVNA (N-terminal acetyl (Ac); C-terminal amide (NH2)) [peptide 23 (Ac…-NH2)], the binding result is “binds”.
